Measured values published in patent US20180334496A1.
Results are given in words; binding and its absence hold for the method and conditions named. Some binding calls cover weakened binding; strength is not graded here. One block for each binder: values may come before it.

Sequences of proteins named here, by UniProt entry; tags and fusion partners are left off. A change or cut given only in a name is not applied to a line headed by its entry.
UniProt P00746: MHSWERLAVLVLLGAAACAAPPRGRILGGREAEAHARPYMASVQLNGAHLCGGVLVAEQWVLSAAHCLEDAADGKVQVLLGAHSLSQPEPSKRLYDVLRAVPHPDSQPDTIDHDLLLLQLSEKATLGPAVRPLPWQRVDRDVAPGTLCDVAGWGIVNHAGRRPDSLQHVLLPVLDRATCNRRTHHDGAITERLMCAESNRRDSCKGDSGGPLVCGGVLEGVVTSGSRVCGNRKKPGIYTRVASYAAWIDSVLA

Target: recombinant human CFD mutant 1 (R157A, R207A), His-tagged (human) (UniProt P00746)
Assay: ELISA, Mut1 Binding

- binding: binds
B1: KCD214 (antibody, V domains shown)
VH: EVQLQQSVAEFVRPGASVKLSCTASGFNIKNTYMHWVKQRPEQGLEWIGRIDPANGNTEYAPKFQGKATITADTSSNTAYLQLSSLTSEDTAIYYCALYDYDGYWGQGTTLTVSS
VL: EIVLTQSPALMAASPGEKVTITCRVSSSISSSSLHWYQQKSGTSPKPWIYGTSNLASGVPVRFSGSRSGTSYSLTISSMEAEDAATYYCQQWSDYPWTFGGGTKLEIK

- binding: binds
B2: KCD047 (antibody, V domains shown)
VH: EVQLQQSGAEFVKPGASVRLSCTASGFNIKDTYMHWVKQRPEQGLEWIGRIDPANGYTKDDPKFQGKATITADTSSNTAYLQLSSLTSEDTAVYYCASAMDYWGQGTSVTVSS
VL: QIVLTQSPAVMSASPGEKVAMTCSASSSVTYMYWYQQKPGSSPRLLIYDTSNLASGVPVRFSGSGSGTSYSLTISRMEAEDAATYYCQQWSTYPFPFGSGTKLEIK
